No constants are given. Whether binding was seen depends on the method and setting. Some entries that bind do so weakly or less than the wild type.
Legend:
[1] = target: T1, GPRC6a (OstR), mouse, on Leydig cells of testis sections (mouse) (UniProt Q8K4Z6); experiment: biotinylated osteocalcin on frozen mouse testis sections, avidin-biotin/DAB detection; no binding detected on GPRC6a-deficient testes
T1 sequence (looked up): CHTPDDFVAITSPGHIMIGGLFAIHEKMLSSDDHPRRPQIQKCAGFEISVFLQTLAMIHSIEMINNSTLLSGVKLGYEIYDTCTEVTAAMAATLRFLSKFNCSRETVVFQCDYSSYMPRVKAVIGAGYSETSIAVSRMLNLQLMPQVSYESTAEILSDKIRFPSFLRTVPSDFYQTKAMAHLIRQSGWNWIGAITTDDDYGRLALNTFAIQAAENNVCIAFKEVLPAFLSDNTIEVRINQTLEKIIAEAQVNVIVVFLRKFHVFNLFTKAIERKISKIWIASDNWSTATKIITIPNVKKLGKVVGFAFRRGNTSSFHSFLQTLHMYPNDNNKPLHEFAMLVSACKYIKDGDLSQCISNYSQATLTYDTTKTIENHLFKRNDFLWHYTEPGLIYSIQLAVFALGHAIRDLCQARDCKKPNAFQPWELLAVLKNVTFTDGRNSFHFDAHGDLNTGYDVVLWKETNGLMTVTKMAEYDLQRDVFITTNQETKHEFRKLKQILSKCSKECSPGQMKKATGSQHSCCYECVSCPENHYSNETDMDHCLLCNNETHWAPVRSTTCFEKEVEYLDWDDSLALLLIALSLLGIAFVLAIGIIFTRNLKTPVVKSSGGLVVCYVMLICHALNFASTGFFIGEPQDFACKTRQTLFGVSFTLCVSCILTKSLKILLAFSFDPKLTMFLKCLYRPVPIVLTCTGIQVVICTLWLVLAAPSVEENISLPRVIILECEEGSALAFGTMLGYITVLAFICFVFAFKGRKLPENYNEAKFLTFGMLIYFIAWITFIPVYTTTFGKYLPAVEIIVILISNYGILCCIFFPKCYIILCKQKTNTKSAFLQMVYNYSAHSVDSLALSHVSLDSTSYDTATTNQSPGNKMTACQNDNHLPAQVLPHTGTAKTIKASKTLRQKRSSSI

[2] = target: T1, GPRC6a (OstR), mouse, on Leydig cells of testis sections (mouse); experiment: heading of the legend of FIG. 15; panel I shows testis sections stained with 10 nM b-osteocalcin
[3] = target: T1, GPRC6a (OstR), mouse, on Leydig cells of testis sections (mouse); experiment: competition with biotinylated osteocalcin on mouse testis sections

YLGASVPSPDPLEPTREQCELNPACDELSDQYGLKTAYKRIYGITI (ligand, UniProt P86546 50-95, looked up, biotinylated (site of the biotin not stated)) [biotinylated osteocalcin]
binding [1]: binds
binding [2]: binds

YLGASVPSPDPLEPTREQCELNPACDELSDQYGLKTAYKRIYGITI (ligand, UniProt P86546 50-95, looked up) [uncarboxylated osteocalcin (recombinant, bacterially produced)]
binding [3]: binds
